The supplement of paper PMC10849652
The list shows a part of the results.

The chains behind the UniProt entries cited, without tags or fusion partners. Where a name states a change or a piece, a line headed by the entry shows the natural chain unless it says otherwise.
UniProt Q8N3K9: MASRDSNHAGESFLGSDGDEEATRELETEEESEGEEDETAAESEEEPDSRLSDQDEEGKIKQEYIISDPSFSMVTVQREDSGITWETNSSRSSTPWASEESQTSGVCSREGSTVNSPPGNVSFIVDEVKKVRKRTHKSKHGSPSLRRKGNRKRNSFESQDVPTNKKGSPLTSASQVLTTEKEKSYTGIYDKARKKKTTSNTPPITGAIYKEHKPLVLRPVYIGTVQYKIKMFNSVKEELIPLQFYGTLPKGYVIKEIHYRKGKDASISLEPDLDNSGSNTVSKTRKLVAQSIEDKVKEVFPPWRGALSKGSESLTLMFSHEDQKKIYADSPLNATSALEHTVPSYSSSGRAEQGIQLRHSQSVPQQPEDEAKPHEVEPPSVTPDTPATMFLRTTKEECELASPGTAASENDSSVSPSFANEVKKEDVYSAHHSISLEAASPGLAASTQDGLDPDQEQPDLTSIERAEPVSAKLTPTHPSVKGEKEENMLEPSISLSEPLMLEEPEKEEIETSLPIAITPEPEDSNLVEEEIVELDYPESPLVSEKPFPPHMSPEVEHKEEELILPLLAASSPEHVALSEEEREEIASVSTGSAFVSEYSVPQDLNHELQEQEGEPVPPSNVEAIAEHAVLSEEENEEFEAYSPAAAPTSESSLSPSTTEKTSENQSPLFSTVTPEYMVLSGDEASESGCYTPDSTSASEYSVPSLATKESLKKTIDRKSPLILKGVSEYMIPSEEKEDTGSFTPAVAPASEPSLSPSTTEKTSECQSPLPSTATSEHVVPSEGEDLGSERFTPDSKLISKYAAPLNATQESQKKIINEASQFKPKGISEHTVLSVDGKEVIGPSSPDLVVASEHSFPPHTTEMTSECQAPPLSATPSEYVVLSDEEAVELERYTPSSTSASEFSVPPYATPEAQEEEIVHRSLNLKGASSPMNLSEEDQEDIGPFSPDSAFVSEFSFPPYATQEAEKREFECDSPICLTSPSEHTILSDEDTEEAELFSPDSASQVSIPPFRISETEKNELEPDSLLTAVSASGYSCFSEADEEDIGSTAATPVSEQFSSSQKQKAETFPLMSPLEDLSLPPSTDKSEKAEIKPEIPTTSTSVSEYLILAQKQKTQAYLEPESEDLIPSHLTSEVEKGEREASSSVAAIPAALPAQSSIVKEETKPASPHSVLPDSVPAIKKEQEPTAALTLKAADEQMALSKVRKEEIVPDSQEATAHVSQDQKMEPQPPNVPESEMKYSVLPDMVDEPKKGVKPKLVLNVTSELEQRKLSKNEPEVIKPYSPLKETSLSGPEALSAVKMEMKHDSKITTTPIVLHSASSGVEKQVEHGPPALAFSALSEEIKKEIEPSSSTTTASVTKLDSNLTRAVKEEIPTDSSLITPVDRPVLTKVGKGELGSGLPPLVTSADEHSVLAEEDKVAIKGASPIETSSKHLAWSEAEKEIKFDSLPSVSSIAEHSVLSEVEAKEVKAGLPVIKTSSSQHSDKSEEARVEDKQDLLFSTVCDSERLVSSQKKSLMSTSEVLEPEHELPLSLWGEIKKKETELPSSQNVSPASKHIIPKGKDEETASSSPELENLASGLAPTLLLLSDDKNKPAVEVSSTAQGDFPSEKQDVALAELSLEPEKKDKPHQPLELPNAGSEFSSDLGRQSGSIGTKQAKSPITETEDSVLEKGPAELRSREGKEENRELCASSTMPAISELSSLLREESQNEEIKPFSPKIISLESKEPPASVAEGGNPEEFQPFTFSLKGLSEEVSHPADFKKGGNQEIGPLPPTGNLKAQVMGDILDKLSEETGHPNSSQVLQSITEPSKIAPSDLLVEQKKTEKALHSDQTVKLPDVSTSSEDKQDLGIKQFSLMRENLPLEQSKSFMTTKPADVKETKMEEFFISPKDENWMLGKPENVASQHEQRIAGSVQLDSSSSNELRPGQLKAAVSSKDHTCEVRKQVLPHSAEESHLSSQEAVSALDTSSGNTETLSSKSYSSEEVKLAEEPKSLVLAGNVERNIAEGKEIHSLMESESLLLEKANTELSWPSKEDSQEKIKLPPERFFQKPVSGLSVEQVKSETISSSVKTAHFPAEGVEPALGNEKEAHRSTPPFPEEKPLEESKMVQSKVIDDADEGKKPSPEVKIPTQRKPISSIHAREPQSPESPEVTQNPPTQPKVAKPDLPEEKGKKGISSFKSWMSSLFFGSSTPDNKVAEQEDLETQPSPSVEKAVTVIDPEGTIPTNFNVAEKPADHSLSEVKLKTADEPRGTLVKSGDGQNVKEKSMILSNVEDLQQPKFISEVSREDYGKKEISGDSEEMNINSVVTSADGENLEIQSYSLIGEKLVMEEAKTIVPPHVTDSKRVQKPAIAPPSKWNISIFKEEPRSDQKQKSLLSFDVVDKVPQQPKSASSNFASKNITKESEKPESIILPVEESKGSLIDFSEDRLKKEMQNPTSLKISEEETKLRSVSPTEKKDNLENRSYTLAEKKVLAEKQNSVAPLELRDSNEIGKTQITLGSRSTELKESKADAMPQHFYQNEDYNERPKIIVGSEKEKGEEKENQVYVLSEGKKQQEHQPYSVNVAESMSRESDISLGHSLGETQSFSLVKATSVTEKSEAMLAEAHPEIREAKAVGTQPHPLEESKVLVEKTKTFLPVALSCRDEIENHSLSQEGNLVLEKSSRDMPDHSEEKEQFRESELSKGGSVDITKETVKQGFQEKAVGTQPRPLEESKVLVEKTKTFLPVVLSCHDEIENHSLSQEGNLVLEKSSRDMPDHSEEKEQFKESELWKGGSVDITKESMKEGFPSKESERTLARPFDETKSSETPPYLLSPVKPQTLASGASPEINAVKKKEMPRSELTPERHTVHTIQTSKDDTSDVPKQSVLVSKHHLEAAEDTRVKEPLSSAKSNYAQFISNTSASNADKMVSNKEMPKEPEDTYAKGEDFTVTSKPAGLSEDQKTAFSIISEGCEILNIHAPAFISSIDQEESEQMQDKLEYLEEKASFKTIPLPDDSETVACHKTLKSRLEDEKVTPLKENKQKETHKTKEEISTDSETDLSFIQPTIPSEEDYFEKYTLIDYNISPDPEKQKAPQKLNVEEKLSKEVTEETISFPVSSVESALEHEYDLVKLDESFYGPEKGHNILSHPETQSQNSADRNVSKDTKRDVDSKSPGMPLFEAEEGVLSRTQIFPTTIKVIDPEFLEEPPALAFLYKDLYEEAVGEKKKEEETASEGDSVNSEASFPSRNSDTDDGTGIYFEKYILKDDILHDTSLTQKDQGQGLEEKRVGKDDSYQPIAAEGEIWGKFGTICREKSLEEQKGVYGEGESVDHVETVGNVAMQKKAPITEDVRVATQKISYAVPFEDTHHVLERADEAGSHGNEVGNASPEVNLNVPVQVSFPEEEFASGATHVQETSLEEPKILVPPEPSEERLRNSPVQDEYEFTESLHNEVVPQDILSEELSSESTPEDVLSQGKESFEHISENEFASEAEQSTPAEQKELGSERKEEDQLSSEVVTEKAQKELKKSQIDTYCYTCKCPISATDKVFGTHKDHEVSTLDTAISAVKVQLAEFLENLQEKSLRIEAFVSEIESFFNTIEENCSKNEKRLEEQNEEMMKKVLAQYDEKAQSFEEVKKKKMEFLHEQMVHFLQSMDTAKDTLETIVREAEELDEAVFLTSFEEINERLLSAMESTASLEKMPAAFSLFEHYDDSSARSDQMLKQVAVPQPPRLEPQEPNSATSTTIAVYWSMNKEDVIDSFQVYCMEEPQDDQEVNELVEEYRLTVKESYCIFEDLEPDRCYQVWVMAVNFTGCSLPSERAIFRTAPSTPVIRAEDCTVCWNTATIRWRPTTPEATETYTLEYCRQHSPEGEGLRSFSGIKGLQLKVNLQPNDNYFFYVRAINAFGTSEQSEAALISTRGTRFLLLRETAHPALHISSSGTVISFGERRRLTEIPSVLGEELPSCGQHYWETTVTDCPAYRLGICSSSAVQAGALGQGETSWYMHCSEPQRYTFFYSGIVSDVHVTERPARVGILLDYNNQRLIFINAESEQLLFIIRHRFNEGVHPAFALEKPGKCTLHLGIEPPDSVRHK
UniProt P62633: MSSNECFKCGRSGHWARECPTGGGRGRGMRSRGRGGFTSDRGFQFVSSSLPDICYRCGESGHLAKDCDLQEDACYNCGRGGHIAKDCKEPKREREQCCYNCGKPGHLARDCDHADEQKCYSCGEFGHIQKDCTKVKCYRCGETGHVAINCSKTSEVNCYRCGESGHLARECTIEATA
UniProt Q9Y240: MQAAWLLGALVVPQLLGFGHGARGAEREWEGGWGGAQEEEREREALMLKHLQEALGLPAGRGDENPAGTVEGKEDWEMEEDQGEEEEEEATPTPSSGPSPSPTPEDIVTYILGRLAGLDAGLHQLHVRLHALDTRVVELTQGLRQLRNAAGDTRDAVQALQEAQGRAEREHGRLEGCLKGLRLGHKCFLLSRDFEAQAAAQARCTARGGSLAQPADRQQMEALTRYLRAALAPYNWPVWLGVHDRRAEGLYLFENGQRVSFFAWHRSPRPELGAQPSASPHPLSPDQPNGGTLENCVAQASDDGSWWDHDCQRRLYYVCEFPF
UniProt Q96F85: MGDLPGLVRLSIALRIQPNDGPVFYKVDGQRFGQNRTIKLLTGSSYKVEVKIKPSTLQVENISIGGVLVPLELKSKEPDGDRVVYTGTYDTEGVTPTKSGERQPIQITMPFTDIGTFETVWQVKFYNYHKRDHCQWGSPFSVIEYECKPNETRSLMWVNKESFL
UniProt Q92989: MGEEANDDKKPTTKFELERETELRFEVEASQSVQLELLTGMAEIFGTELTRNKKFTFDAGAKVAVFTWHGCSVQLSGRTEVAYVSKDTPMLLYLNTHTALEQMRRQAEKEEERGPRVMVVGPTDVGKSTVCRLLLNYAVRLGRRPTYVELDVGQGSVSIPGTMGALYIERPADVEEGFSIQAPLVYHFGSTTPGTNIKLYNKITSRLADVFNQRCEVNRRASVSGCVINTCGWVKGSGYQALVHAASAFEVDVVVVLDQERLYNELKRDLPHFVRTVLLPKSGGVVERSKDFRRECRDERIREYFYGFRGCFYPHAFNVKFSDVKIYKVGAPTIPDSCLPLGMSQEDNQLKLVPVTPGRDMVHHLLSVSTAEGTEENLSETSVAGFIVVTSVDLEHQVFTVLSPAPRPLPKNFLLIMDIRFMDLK
UniProt P30622: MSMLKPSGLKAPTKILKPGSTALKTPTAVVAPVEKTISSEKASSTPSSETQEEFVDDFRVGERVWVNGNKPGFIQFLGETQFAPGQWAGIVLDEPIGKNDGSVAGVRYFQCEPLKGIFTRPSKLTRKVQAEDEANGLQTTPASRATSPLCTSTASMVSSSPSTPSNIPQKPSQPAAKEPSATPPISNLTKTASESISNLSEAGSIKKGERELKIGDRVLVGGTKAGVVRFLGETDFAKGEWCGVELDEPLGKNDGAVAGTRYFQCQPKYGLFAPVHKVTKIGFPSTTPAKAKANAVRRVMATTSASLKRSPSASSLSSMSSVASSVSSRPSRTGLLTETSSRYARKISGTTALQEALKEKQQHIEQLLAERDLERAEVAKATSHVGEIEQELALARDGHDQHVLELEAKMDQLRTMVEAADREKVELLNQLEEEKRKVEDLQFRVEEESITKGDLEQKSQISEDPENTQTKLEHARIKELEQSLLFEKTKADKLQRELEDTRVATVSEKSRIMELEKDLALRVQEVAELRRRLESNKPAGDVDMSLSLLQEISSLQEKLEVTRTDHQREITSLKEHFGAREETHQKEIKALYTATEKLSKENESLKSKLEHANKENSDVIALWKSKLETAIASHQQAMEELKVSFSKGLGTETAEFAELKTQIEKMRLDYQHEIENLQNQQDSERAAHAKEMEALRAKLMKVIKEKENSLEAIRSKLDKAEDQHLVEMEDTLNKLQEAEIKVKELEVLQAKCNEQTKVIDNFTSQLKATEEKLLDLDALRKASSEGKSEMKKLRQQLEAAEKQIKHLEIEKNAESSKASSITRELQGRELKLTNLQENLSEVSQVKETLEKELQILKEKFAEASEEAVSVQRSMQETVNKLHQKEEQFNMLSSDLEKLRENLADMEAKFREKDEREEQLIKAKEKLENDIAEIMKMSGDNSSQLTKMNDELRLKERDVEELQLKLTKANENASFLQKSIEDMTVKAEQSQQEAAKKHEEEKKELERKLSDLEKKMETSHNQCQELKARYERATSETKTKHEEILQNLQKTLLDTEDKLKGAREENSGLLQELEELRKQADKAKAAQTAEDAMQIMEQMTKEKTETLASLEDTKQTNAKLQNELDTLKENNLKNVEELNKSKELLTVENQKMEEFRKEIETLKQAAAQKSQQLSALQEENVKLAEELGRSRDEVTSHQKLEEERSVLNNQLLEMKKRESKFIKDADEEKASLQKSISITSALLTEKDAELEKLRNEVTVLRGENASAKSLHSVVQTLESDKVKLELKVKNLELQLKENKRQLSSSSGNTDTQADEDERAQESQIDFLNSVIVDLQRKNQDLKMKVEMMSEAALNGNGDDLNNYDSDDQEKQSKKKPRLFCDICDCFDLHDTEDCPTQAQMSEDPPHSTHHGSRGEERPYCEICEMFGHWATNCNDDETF

How the values were obtained:
Test in all cases: log2 fold change, soluble protein after heating vs DMSO (PISA); higher = thermal stabilisation; K562 cells, 10 uM, 30 min; active = over 0.2 and 3.5 SD of the protein, either way, in both replicates (recomputed)
[1] = compound: COC1=CC=C(C=C1)CN2C=CC3=C2C=C(C=C3)C(=O)NO
How it was run: (§1)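 K562 cells at 2×10^6 cells/mL were exposed to 10 μM compound for 30 min, then aliquots were heated for 3 min across 48°C-58°C, pooled, and extracted in PBS containing 0.5% NP-40 at 4°C. The supernatant after 21,000xg for 90 min was taken as soluble protein and measured by TMTpro 16plex LC-MS/MS with channel sums equalised. Thermal stability is reported relative to control samples, with values from duplicates. Fold changes are given on a log2 scale.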

filanesib = compound: CON(C)C(=O)N1N=C(c2cc(F)ccc2F)S[C@@]1(CCCN)c1ccccc1 [filanesib]
How it was run: as §1

zotarolimus = compound: CO[C@H]1C[C@@H]2CC[C@@H](C)[C@@](O)(O2)C(=O)C(=O)N2CCCC[C@H]2C(=O)O[C@H]([C@H](C)C[C@@H]2CC[C@H](n3cnnn3)[C@H](OC)C2)CC(=O)[C@H](C)/C=C(\C)[C@@H](O)[C@@H](OC)C(=O)[C@H](C)C[C@H](C)/C=C/C=C/C=C/1C [zotarolimus]
How it was run: as §1

idasanutlin = compound: COc1cc(C(=O)O)ccc1NC(=O)[C@@H]1N[C@@H](CC(C)(C)C)[C@](C#N)(c2ccc(Cl)cc2F)[C@H]1c1cccc(Cl)c1F [idasanutlin]
How it was run: as §1

alisertib = compound: COc1cc(Nc2ncc3c(n2)-c2ccc(Cl)cc2C(c2c(F)cccc2OC)=NC3)ccc1C(=O)O [alisertib]
How it was run: as §1

gefitinib = compound: COc1cc2ncnc(Nc3ccc(F)c(Cl)c3)c2cc1OCCCN1CCOCC1 [gefitinib]
How it was run: as §1

[2] = compound: COc1cccc2cc(-c3nc([C@H]4CC[C@H](C(=O)O)CC4)n4ncnc(N)c34)[nH]c12
How it was run: as §1

pictilisib = compound: CS(=O)(=O)N1CCN(Cc2cc3nc(-c4cccc5[nH]ncc45)nc(N4CCOCC4)c3s2)CC1 [pictilisib]
How it was run: as §1

[3] = compound: COc1cc2nc(-c3cc(F)ccc3O)nc(N[C@@H]3CNC[C@H]3C(C)(C)O)c2cc1OC
How it was run: as §1

lapatinib = compound: CS(=O)(=O)CCNCc1ccc(-c2ccc3ncnc(Nc4ccc(OCc5cccc(F)c5)c(Cl)c4)c3c2)o1 [lapatinib]
How it was run: as §1

Target	log2 fold change [1]	log2 fold change (filanesib)	log2 fold change (zotarolimus)	log2 fold change (idasanutlin)	log2 fold change (alisertib)	log2 fold change (gefitinib)	log2 fold change [2]	log2 fold change (pictilisib)	log2 fold change [3]	log2 fold change (lapatinib)
CNOT11 (UniProt Q9UKZ1)	inactive: -0.006	inactive: -0.008	inactive: -0.023	inactive: 0.008	inactive: -0.027	inactive: -0.003	inactive: 0.039			
COG4 (UniProt Q9H9E3)	inactive: -0.155	inactive: -0.037	inactive: 0.189			inactive: -0.048		inactive: -0.278		
COL1A1 (UniProt P02452)	inactive: 0.032	inactive: 0.188	inactive: -0.27	inactive: 0.12					inactive: 0.04	inactive: -0.052
CNOT4 isoform 9 (UniProt O95628)	inactive: -0.018		active: -0.373	active: -0.334	inactive: 0.018	inactive: 0.053	inactive: 0.019	inactive: 0.045	inactive: 0.106	inactive: -0.083
CISD2 (UniProt Q8N5K1)	inactive: -0.008	inactive: -0.055	inactive: -0.026	inactive: -0.025	inactive: -0.067	inactive: 0.014	inactive: 0.013	inactive: -0.017	inactive: 0.029	inactive: -0.002
CLASP2 (UniProt O75122)	inactive: 0.015		inactive: 0.235	inactive: 0.101	inactive: -0.025	inactive: 0.071	inactive: 0.072		inactive: 0.125	inactive: 0.032
CLCN5 isoform 2 (UniProt P51795)	inactive: -0.011		inactive: -0.004			inactive: 0.011				
CLN3 (UniProt Q13286)	inactive: 0.008		inactive: -0.1		inactive: 0	inactive: -0.028	inactive: 0.139		inactive: 0.08	inactive: -0.059
COL12A1 (UniProt Q99715)		inactive: 0.115							inactive: 0.078	inactive: -0.049
CMYA5 (UniProt Q8N3K9)		inactive: 0.144	inactive: -0.335		inactive: -0.047	inactive: -0.013	inactive: -0.002			
CNOT6 (UniProt Q9ULM6)		inactive: -0.028	inactive: -0.056	inactive: -0.121	inactive: -0.219	inactive: 0.062	inactive: -0.044	inactive: -0.21		
CLSTN3 isoform 2 (UniProt Q9BQT9)				inactive: 0.132					inactive: 0.034	inactive: 0.063
COIL (UniProt P38432)		inactive: -0.142		inactive: 0.039		inactive: 0.017			inactive: -0.206	inactive: -0.055
CLN8 (UniProt Q9UBY8)		inactive: 0.068	inactive: 0.13	inactive: -0.145	inactive: 0.04	inactive: 0.075	inactive: -0.015		inactive: -0.019	inactive: 0.012
CMTM4 (UniProt Q8IZR5)		inactive: 0.076		inactive: -0.145	inactive: -0.105	inactive: 0.169	inactive: 0.06			
CNBP (UniProt P62633)		inactive: 0.051	inactive: -0.118	inactive: 0.143	inactive: -0.141	inactive: -0.013	inactive: -0.019	inactive: -0.063	inactive: 0.001	inactive: -0.051
CNTRL (UniProt Q7Z7A1)		inactive: 0.226	inactive: -0.122	inactive: 0.056		inactive: -0.005				
CHPT1 (UniProt Q8WUD6)		inactive: -0.345	inactive: -0.017	inactive: -0.018	inactive: -0.136	inactive: 0.013	inactive: -0.015	inactive: -0.096	inactive: -0.009	inactive: 0.159
CLEC11A (UniProt Q9Y240)									inactive: -0.064	inactive: -0.024
CLDN12 (UniProt P56749)		inactive: 0.196			inactive: -0.133		inactive: -0.046			
CHPF2 (UniProt Q9P2E5)		inactive: -0.052	inactive: 0.083	inactive: 0.07	inactive: -0.242	inactive: 0.402	inactive: -0.016	inactive: -0.041	inactive: -0.005	inactive: 0.103

Exported bar-delimited: entries from further up
Target | log2 fold change [1] | log2 fold change (filanesib) | log2 fold change (zotarolimus) | log2 fold change (idasanutlin) | log2 fold change (alisertib) | log2 fold change (gefitinib) | log2 fold change [2] | log2 fold change (pictilisib) | log2 fold change [3] | log2 fold change (lapatinib)
CLASP2 (UniProt O75122) | inactive: 0.015 |  | inactive: 0.235 | inactive: 0.101 | inactive: -0.025 | inactive: 0.071 | inactive: 0.072 |  | inactive: 0.125 | inactive: 0.032
CLCN5 isoform 2 (UniProt P51795) | inactive: -0.011 |  | inactive: -0.004 |  |  | inactive: 0.011 |  |  |  | 
COIL (UniProt P38432) |  | inactive: -0.142 |  | inactive: 0.039 |  | inactive: 0.017 |  |  | inactive: -0.206 | inactive: -0.055

(listing goes on)

Target	log2 fold change [1]	log2 fold change (filanesib)	log2 fold change (zotarolimus)	log2 fold change (idasanutlin)	log2 fold change (alisertib)	log2 fold change (gefitinib)	log2 fold change [2]	log2 fold change (pictilisib)	log2 fold change [3]	log2 fold change (lapatinib)
CLPTM1L (UniProt G5E9Z2)		inactive: -0.235	inactive: -0.101	inactive: -0.446	inactive: -0.199	inactive: -0.142	inactive: 0.099			
CNRIP1 (UniProt Q96F85)					inactive: 0.075	inactive: 0.002	inactive: -0.223		inactive: 0.282	inactive: 0.054
CNN1 (UniProt P51911)		inactive: -0.051	inactive: 0.047	inactive: -0.048	inactive: -0.055	inactive: -0.14	inactive: 0.059	inactive: 0.172	inactive: 0.182	inactive: -0.068
CMIP (UniProt Q8IY22)		inactive: 0.257			inactive: -0.149		inactive: -0.427	inactive: -0.001		
COL18A1 (UniProt P39060)		inactive: 0.098	inactive: -0.085	inactive: 0.181	inactive: -0.019	inactive: 0.046	inactive: 0.314	inactive: -0.017	inactive: -0.122	inactive: -0.001
CLYBL (UniProt Q8N0X4)									inactive: 0.39	inactive: -0.19
CIP2A (UniProt Q8TCG1)		inactive: 0.586			inactive: 0.73		inactive: -0.157	inactive: 0.415		
CLP1 (UniProt Q92989)		inactive: -0.066	inactive: -0.153		inactive: 0.067		inactive: 0.052			
CKS2 (UniProt P33552)				inactive: 0.193	inactive: -0.029	inactive: 0.093	inactive: 0.14	inactive: -0.666	inactive: 0.184	inactive: -0.036
CNBP isoform 4 (UniProt P62633)					inactive: -0.085	inactive: 0	inactive: 0.027			
CLEC3B (UniProt P05452)		inactive: 0.077	inactive: -0.549	inactive: 0.206	inactive: 0.018	inactive: -0.316	inactive: 0.434		inactive: 0.172	inactive: 0.139
COG6 (UniProt Q9Y2V7)			inactive: 0.115	inactive: 0.053	inactive: 0.075		inactive: 0		inactive: -0.11	inactive: 0.131
CIRBP (UniProt Q14011)			inactive: 0.023	inactive: 0.137	inactive: 0.018	inactive: -0.056	inactive: -0.051	inactive: 0.072	inactive: -0.093	inactive: 0.031
CNPY4 (UniProt Q8N129)		inactive: 0.071	inactive: 0.099	inactive: 0.017	inactive: -0.113	inactive: 0.012	inactive: 0.056	inactive: -0.026	inactive: 0.064	inactive: 0.117
CNEP1R1 isoform 2 (UniProt Q8N9A8)			inactive: -0.115	inactive: 0						
CHUK (UniProt O15111)			inactive: 0.076	inactive: 0.27	inactive: -0.419		inactive: 0.092	inactive: -0.257		
CLEC2B (UniProt Q92478)									inactive: -0.372	inactive: 0.077
CNN3 (UniProt Q15417)		inactive: -0.006	inactive: 0.005	inactive: -0.04	inactive: -0.031	inactive: 0.026	inactive: -0.026	inactive: 0.04	inactive: 0.111	inactive: -0.032
CLIP1 isoform 2 (UniProt P30622)		inactive: 0.057	inactive: 0.044		inactive: -0.705	inactive: 0.012	inactive: -0.076		inactive: 0.072	inactive: 0.03
COG7 (UniProt P83436)			inactive: 0.104	inactive: -0.486	inactive: -0.079		inactive: 0.148		inactive: 0.051	inactive: -0.002
